Data taken from PMC9598925, “Synthetic Amphipathic β-Sheet Temporin-Derived Peptide with Dual Antibacterial and Anti-Inflammatory Activities” (Antibiotics, 2022).
Where two headings read alike, the source gives them in different places. Non-standard residues stand in square brackets, D forms with d. Residues, ends and D or L forms follow the SMILES beside them. Nle = CCCC[C@H](N)C(=O)O

What was measured:
[1] = Membrane fluidity, Laurdan Generalized Polarization; details: PBS pH 7.4, unloaded LUVs −0.07 ± 0.01
[2] = as above; details: PBS pH 7.4, unloaded LUVs −0.18 ± 0.01
[3] = unloaded LUVs −0.18 ± 0.01, calculated previously ref 27, cited from earlier work
[4] = unloaded LUVs −0.07 ± 0.01, calculated previously ref 27, cited from earlier work

| Compound | GP Value ([1]; LUVs DOPG/DOPE/CL + 5 μM cmpd) | GP Value ([1]; LUVs DOPG/DOPE/CL + 30 μM cmpd) | GP Value ([2]; LUVs DOPG/CL + 5 μM cmpd) | GP Value ([2]; LUVs DOPG/CL + 30 μM cmpd) | GP Value ([3]; LUVs DOPG/CL + 5 μM cmpd) | GP Value ([3]; LUVs DOPG/CL + 30 μM cmpd) | GP Value ([4]; LUVs DOPG/DOPE/CL + 5 μM cmpd) | GP Value ([4]; LUVs DOPG/DOPE/CL + 30 μM cmpd) |
| --- | --- | --- | --- | --- | --- | --- | --- | --- |
| CCCC[C@H](N)C(=O)N[C@@H](Cc1ccccc1)C(=O)N[C@H](C(=O)N1CCC[C@H]1C(=O)N[C@@H](Cc1c[nH]c2ccccc12)C(=O)N[C@@H](Cc1ccccc1)C(=O)N[C@@H](CO)C(=O)N[C@@H](CCCCN)C(=O)N[C@@H](Cc1ccccc1)C(=O)N[C@H](CC(C)C)C(=O)N[C@H](CCCCN)C(=O)N[C@@H](CCCNC(=N)N)C(=O)N[C@H](C(=O)N[C@@H](CC(C)C)C(N)=O)[C@@H](C)CC)C(C)C [[Nle^1, DLeu^9, DLys^10]TL] (H-[Nle]FVPWFSKF[dL][dK]RIL-NH2) | 0.05 ± 0.01 | 0.13 ± 0.03 | 0.03 ± 0.01 | 0.29 ± 0.03 |  |  |  |  |
| FVPWFSKFlkRIL [[DLeu^9, DLys^10]TL] |  |  |  |  | −0.06 ± 0.01 | 0.26 ± 0.02 | 0.09 ± 0.02 | 0.11 ± 0.02 |
